{"source": "patent US20070092577A1", "about": "“Dietary calcium for reducing the production of reactive oxygen species” (University of Tennessee Research Foundation, priority 2005, published 2007)", "key": {"[1]": {"tested_on": "TNFα", "assay": "TNFα expression in RAW 264 macrophages", "type": "cell-based", "conditions": "added to calcitriol; macrophages cultured alone", "protocol": "(§1) RAW 264 macrophages and 3T3-L1 preadipocytes (American Type Culture Collection) were incubated at a density of 8000 cells/cm2 (10 cm2 dish) and grown in Dulbecco's modified Eagle's medium (DMEM) containing 10% FBS and antibiotics (adipocyte medium) at 37° C. in 5% CO2 in air. Confluent 3T3-L1 preadipocytes were induced to differentiate with a standard differentiation medium consisting of DMEM-F10 (1:1, vol/vol) medium supplemented with 1% FBS, 1 μM dexamethasone, IBMX (0.5 mM) and antibiotics (1% Penicillin-Streptomycin). Preadipocytes were maintained in this differentiation medium for 3 days and subsequently cultured in adipocyte medium. […]\nHuman adipocytes (Zen-Bio, Inc.), 3T3-L1 adipocytes, RAW264 macrophages were obtained and co-cultured by using transwell inserts with 0.4 μm porous membranes (Corning) to separate adipocytes and macrophages. All data are expressed as mean±SEM. Data were evaluated for statistical significance by analysis of one-way or two-way variance (ANOVA; means with different letter differ, p<0.05).\nAdipocyte and muscle 18s, CD14, TNFα, MIP, M-CSF, IL-6 and MCP-1 were quantitatively measured using a Smart Cycler Real Time PCR System (Cepheid, Sunnyvale, Calif.) with a TaqMan 1000 Core Reagent Kit (Applied Biosystems, Branchburg, N.J.). […] The mRNA quantitation for each sample was further normalized using the corresponding 18s quantitation."}, "[2]": {"tested_on": "CD14", "assay": "CD14 expression in human adipocytes", "type": "cell-based", "conditions": "nifedipine 10 μmol/L added to calcitriol, 48 hours", "from_the_text": "(§2) Cell culture: Human preadipocytes used in this study were supplied by Zen-Bio (Research Triangle, N.C.). Preadipocytes were inoculated in DMEM/Ham's F-10 medium (DMEM-F10) (1:1, vol/vol) containing 10% FBS, 15 mmol/L HEPES, and antibiotics at a density of 30,000 cells/cm^2. Confluent monolayers of preadipocytes were induced to differentiate with a standard differentiation medium consisting of DMEM-F 10 (1:1, vol/vol) medium supplemented with 15 mmol/L HEPES, 3% FBS, 33 μmol/L biotin, 17 μmol/L pantothenate, 100 nmol/L insulin, […] methylisobutylxanthine, 1 μmol/L dexamethasone, 1 μmol/L BRL49653, and antibiotics. […]\n(§3) Cells were washed with fresh adipocyte medium, re-fed with medium containing the indicated treatments, and incubated at 37° C. in 5% CO2 for 48 hours before analysis. Cell viability was measured via trypan blue exclusion.\n(§4) Adipocyte and muscle 18s, CD14, TNFα, MIP, M-CSF, IL-6 and MCP-1 were quantitatively measured using a Smart Cycler Real Time PCR System (Cepheid, Sunnyvale, Calif.) with a TaqMan 1000 Core Reagent Kit (Applied Biosystems, Branchburg, N.J.). […] Reactions of quantitative RT-PCR for standards and unknown samples were also performed according to the instructions of Smart Cycler System (Cepheid, Sunnyvale, Calif.) and TaqMan Real Time PCR Core Kit (Applied Biosystems, Branchburg, N.J.). […]"}, "[3]": {"tested_on": "ROS production in cultured 3T3-L1 adipocytes", "assay": "ROS production in cultured adipocytes (H2-DCFDA)", "type": "cell-based, murine", "conditions": "added to glucose 30 mmol/L, 48 hours; nifedipine 10 μmol/L", "protocol": "3T3-L1 preadipocytes were incubated at a density of 8000 cells/cm^2 (10 cm^2 dish) and grown in Dulbecco's modified Eagle's medium (DMEM) containing 10% FBS and antibiotics (adipocyte medium) at 37° C. in 5% CO2 in air. Confluent preadipocytes were induced to differentiate with a standard differentiation medium consisting of DMEM-F 10 (1:1, vol/vol) medium supplemented with 1% FBS, 1 μM dexamethasone, IBMX (0.5 mM) and antibiotics (1% Penicillin-Streptomycin). Preadipocytes were maintained in this differentiation medium for 3 days and subsequently cultured in adipocyte medium. Cultures were re-fed every 2-3 days to allow 90% of cells to reach full differentiation before conducting chemical treatment. Chemicals were freshly diluted in adipocyte medium before treatment. Cells were washed with fresh adipocyte medium, re-fed with medium containing the different treatments, and incubated at 37° C. in 5% CO2 in air before analysis. Cell viability was measured via trypan blue exclusion. […] Cells were loaded with H2-DCFDA (2 μmol/L) 30 minute before the end of the incubation period (48 h). After washing twice with PBS, cells were scraped and disrupted by sonication on ice (20s). Fluorescence (emission 543 nm or 527 nm) and DNA content were then measured as described previously. The intensity of fluorescence was expressed as arbitary units per ng DNA."}, "[4]": {"tested_on": "IL-8", "assay": "IL-8 expression in differentiated Zen-bio human adipocytes", "type": "cell-based", "conditions": "nifedipine 10 μmol/L plus 10 nmol/L 1α, 25-(OH)2-D3, 48 h", "protocol": "(§5) Human pre-adipocytes used in this study were supplied by Zen-Bio (Research Triangle, N.C.). […] The cells are isolated from the stromal vascular fraction of human subcutaneous adipose tissue and differentiated in vitro as follows: […] Preadipocytes were maintained in this differentiation medium for 3 days and subsequently cultured in adipocyte medium in which BRL49653 and MIX were omitted. Cultures were re-fed every 2-3 days till fully differentiated. Cells were incubated in serum free medium overnight before chemical treatment. Chemicals were freshly diluted in adipocyte medium before treatment. […] Cell viability was measured via trypan blue exclusion. Adipocyte and muscle 18s, TNFα, IL-6, IL-8, IL-15 and adiponectin were quantitatively measured using a smart cycler real-time PCR system (Cepheid, Sunnyvale, Calif.) with a TaqMan 1000 Core Reagent Kit (Applied Biosystems, Branchburg, N.J.). […] Reactions of quantitative RT-PCR for standards and unknown samples were also performed according to the instructions of Smart Cycler System (Cepheid, Sunnyvale, Calif.) and TaqMan Real Time PCR Core Kit (Applied Biosystems, Branchburg, N.J.). The mRNA quantitation for each sample was further normalized using the corresponding 18s quantitation."}, "[5]": {"tested_on": "CD14", "assay": "CD14 expression in mouse (3T3-L1) adipocytes", "type": "cell-based", "conditions": "nifedipine 10 μmol/L added to calcitriol, 48 hours", "protocol": "as §1, §3, §4"}, "[6]": {"tested_on": "MIF", "assay": "MIF expression in human adipocytes", "type": "cell-based", "conditions": "nifedipine 10 μmol/L added to calcitriol, 48 hours", "from_the_text": "as §2, §3, §4"}, "[7]": {"tested_on": "IL-6", "assay": "IL-6 expression in differentiated Zen-bio human adipocytes", "type": "cell-based", "conditions": "nifedipine 10 μmol/L plus 10 nmol/L 1α, 25-(OH)2-D3, 48 h", "protocol": "as §5"}}, "note": "At least one compound was matched to its structure with a doubt left."}
{"compound": "COC(=O)C1=C(C)NC(C)=C(C(=O)OC)C1c1ccccc1[N+](=O)[O-]", "note": "[nifedipine]", "values": [{"measurement": "effect on calcitriol stimulated TNFα expression", "setting": "[1]", "result": "blocked"}, {"measurement": "effect on calcitriol increased CD14 expression", "setting": "[2]", "result": "reversed"}, {"measurement": "effect on high glucose induced ROS production", "setting": "[3]", "result": "partially reversed"}, {"measurement": "effect on 1α, 25-(OH)2-D3 stimulated IL-8 expression", "setting": "[4]", "result": "blocked"}, {"measurement": "effect on calcitriol increased CD14 expression", "setting": "[5]", "result": "reversed"}, {"measurement": "effect on calcitriol increased MIF expression", "setting": "[6]", "result": "reversed"}, {"measurement": "effect on 1α, 25-(OH)2-D3 stimulated IL-6 expression", "setting": "[7]", "result": "blocked"}]}
